Measured values reported in doi:10.1101/2023.08.23.554462.
Results are given in words; binding and its absence hold for the method and conditions named. In cells and extracts the contact can be indirect. These calls come from enrichment with a bait or labelling near it, and not all partners need be listed.

By UniProt entry, the sequences of proteins in these tests, tags left out.
UniProt Q9UNE7: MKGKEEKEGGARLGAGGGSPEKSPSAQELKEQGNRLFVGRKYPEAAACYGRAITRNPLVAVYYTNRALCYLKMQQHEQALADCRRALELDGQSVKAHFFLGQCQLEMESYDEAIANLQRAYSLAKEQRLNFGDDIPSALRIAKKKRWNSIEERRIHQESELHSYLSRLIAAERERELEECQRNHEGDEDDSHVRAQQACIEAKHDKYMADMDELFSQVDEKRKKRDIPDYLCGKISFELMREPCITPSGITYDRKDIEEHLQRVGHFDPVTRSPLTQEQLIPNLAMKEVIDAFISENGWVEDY
UniProt O95757: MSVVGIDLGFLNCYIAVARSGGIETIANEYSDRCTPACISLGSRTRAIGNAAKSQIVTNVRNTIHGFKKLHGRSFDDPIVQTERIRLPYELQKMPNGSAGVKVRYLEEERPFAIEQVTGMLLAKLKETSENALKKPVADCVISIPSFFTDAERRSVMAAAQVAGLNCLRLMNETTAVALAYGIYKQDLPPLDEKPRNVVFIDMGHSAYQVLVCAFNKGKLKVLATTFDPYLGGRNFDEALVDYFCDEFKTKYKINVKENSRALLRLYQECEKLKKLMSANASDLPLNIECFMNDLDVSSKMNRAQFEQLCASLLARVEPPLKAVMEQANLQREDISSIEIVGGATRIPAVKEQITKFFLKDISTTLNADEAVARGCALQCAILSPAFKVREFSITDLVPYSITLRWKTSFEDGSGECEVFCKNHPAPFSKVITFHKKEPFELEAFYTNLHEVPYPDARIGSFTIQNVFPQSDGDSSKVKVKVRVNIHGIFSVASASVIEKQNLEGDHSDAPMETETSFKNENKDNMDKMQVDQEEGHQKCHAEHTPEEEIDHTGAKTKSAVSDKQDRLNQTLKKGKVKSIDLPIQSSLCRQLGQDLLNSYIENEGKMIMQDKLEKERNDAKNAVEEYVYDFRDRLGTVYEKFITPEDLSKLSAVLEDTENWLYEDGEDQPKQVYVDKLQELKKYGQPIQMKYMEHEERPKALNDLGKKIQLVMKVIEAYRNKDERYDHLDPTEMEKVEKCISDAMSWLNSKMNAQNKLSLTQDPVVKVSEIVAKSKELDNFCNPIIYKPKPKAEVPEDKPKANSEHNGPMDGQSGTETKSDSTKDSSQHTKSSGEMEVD
UniProt P28066: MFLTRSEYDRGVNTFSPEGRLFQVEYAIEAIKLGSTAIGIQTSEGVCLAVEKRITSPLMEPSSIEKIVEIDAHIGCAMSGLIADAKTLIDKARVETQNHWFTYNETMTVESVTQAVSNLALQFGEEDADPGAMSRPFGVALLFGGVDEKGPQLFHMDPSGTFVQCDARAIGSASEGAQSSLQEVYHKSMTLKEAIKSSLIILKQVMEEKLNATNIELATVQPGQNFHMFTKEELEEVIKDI
UniProt Q92598: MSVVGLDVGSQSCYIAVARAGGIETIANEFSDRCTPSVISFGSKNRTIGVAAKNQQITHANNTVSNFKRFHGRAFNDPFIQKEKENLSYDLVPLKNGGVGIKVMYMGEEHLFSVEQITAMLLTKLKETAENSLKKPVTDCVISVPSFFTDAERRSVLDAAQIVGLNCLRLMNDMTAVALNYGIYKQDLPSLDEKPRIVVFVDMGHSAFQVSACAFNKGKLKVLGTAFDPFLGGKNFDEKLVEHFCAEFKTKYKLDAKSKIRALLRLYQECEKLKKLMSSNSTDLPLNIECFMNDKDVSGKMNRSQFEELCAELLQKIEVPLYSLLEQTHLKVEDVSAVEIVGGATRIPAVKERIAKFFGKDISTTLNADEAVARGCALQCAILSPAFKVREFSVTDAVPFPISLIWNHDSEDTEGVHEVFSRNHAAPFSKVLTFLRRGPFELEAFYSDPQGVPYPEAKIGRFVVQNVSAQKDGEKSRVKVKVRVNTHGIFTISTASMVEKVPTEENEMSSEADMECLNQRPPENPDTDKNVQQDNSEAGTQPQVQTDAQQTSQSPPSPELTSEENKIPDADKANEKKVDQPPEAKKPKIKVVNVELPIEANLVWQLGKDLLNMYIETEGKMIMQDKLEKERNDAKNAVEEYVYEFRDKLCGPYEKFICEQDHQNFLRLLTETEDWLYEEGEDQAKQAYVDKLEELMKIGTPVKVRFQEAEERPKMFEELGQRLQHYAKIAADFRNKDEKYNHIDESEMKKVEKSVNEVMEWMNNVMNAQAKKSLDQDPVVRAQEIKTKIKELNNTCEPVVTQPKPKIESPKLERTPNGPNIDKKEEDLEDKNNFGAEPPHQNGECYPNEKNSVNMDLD
UniProt P54652: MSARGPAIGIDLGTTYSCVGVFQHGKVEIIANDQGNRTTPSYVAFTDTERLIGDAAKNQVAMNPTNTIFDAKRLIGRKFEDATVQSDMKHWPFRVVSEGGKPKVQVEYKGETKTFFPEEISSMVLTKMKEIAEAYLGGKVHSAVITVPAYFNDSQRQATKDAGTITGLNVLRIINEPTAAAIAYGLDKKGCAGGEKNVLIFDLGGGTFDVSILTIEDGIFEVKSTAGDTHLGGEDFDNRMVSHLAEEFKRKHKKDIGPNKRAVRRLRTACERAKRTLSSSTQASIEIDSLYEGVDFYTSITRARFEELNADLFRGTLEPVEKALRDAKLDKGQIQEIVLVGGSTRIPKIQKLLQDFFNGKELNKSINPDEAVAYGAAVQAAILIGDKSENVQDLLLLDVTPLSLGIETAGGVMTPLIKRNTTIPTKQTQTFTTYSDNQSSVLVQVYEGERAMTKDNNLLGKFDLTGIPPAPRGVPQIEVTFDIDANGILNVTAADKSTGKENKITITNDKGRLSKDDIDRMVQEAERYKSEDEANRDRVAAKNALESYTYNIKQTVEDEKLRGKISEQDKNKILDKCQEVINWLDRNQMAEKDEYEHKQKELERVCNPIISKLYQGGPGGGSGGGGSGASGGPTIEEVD
UniProt Q5VYK3: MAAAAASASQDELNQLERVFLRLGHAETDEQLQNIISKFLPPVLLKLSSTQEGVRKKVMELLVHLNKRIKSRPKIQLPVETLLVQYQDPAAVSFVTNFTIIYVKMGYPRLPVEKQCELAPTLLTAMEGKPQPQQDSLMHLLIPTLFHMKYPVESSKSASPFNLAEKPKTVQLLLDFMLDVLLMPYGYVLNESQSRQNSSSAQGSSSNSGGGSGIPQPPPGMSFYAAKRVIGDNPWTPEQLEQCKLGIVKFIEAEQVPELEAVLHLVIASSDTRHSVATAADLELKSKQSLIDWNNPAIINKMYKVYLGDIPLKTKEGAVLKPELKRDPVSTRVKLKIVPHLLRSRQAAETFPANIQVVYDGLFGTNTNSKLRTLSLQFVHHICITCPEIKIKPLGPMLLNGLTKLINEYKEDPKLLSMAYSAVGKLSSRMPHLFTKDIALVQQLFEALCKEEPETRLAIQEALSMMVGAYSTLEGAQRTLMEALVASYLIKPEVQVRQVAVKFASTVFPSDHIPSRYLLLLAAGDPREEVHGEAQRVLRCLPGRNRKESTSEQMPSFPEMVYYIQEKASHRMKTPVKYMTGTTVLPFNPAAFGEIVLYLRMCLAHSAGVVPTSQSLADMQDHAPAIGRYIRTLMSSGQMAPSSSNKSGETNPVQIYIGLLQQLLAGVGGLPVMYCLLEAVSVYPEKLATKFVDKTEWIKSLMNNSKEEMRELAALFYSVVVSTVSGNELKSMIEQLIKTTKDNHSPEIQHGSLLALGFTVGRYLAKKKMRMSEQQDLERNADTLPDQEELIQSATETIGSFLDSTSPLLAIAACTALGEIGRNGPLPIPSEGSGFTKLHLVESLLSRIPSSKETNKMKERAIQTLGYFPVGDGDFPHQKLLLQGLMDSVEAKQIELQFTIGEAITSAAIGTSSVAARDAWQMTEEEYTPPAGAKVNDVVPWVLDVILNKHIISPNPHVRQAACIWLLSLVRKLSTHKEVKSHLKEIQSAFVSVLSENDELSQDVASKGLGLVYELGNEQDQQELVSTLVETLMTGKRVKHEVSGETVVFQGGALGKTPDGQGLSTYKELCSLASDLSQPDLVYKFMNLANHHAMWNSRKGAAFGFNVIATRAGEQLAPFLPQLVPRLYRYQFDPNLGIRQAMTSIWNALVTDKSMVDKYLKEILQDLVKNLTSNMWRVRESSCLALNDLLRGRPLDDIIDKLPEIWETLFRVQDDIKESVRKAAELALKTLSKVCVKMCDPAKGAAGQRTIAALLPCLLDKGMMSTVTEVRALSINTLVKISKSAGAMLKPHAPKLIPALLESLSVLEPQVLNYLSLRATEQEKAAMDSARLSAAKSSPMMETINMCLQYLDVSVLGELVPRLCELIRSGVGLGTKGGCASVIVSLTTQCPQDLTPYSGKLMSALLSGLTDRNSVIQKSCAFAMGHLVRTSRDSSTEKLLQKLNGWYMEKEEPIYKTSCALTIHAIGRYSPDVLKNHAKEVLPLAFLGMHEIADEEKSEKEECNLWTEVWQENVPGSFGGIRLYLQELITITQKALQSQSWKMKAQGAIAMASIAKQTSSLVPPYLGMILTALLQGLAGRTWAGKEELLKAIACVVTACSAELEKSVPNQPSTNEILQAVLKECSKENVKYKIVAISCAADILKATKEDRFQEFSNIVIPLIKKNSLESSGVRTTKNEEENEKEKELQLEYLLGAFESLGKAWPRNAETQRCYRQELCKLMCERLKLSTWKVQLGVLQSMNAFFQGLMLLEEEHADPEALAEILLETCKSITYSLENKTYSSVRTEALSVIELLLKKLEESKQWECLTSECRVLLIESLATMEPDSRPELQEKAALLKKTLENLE
UniProt Q9BYJ9: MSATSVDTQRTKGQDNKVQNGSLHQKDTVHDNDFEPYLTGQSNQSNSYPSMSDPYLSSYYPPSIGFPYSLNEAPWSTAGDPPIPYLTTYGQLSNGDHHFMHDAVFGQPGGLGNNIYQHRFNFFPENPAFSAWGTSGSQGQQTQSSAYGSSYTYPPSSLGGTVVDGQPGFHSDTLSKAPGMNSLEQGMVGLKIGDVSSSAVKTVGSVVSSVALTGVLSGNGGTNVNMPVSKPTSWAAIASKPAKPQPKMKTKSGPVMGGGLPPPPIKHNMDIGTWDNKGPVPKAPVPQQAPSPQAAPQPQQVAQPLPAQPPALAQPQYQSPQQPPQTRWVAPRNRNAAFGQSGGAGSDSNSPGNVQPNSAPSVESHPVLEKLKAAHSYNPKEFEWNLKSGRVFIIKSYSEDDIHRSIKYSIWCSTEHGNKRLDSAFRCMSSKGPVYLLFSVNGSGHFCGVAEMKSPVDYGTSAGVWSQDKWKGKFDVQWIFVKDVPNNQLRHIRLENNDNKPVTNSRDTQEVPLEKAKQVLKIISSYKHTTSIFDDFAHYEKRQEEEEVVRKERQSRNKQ
UniProt Q58FF8: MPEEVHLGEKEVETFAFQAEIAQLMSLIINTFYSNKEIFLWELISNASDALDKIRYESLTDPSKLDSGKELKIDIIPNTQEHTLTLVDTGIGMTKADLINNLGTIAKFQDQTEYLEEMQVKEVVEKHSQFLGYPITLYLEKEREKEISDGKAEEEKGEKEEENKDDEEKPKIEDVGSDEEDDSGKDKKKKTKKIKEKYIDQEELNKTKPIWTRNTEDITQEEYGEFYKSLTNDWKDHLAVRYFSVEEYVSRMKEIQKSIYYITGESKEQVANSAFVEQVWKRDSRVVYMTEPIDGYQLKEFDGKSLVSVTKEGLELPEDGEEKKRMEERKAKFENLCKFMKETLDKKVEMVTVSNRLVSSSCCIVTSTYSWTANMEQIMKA
UniProt Q15008: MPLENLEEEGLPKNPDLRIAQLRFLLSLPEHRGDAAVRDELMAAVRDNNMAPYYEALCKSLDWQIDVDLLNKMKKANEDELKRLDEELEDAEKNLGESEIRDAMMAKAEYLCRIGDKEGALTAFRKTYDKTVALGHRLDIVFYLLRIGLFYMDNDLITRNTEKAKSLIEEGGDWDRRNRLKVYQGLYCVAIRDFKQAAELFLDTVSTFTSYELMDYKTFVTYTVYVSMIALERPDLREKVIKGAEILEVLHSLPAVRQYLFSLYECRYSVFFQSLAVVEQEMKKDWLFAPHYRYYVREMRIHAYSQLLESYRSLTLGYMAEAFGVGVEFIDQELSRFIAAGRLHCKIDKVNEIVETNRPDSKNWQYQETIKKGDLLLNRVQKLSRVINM
UniProt P62333: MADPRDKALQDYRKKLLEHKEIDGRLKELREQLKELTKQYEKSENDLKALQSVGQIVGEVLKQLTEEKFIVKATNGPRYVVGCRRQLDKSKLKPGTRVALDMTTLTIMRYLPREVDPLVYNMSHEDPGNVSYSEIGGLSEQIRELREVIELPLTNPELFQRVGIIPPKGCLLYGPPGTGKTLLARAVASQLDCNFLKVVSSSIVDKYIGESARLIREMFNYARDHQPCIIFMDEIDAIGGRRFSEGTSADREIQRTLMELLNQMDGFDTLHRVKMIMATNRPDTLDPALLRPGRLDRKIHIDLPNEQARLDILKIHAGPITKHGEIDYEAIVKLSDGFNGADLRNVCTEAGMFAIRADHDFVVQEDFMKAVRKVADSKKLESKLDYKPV

B1: HSPBP1 (protein, UniProt Q9NZL4 1-359)
chain: MSDEGSRGSRLPLALPPASQGCSSGGGGGGSSAGGSGNSRPPRNLQGLLQMAITAGSEEPDPPPEPMSEERRQWLQEAMSAAFRGQREEVEQMKSCLRVLSQPMPPTAGEAEQAADQQEREGALELLADLCENMDNAADFCQLSGMHLLVGRYLEAGAAGLRWRAAQLIGTCSQNVAAIQEQVLGLGALRKLLRLLDRDACDTVRVKALFAISCLVREQEAGLLQFLRLDGFSVLMRAMQQQVQKLKVKSAFLLQNLLVGHPEHKGTLCSMGMVQQLVALVRTEHSPFHEHVLGALCSLVTDFPQGVRECREPELGLEELLRHRCQLLQQHEEYQEELEFCEKLLQTCFSSPADDSMDR

The molecules below were run against StrepII-tagged STUB1 (STIP1 homology and U-box protein 1), stably expressed in OS-RC-2 cells (UniProt Q9UNE7) (assay: affinity purification with mass spectrometry).
HSPA4L (from UniProt O95757 1-839) was tested, and the binding was “binds”.
For PSMA5 (from UniProt P28066 1-241), the binding was “binds”.
With HSPH1 (from UniProt Q92598 1-858) the binding was “binds”.
HSPA2 (from UniProt P54652 1-639) was tested, and the binding was “binds”.
With ECPAS (from UniProt Q5VYK3 1-1845) the binding was “binds”.
“YTHDF1 (endogenous, found by AP-MS) (from UniProt Q9BYJ9 1-559)” was tested, and the binding was “binds”.
With HSP90AB2P (from UniProt Q58FF8 1-381) the binding was “binds”.
PSMD6 (from UniProt Q15008 1-389) was tested, and the binding was “binds”.
With PSMC6 (from UniProt P62333 1-389) the binding was “binds”.
With HSPA4 (from UniProt P34932 1-840) the binding was “binds”.
For B1, the binding was “binds”.
